Test results from publication PMC8109125.
No constants are given. Whether binding was seen depends on the method and setting. Binding seen in cells or lysates may run through a third protein. Some results given as binding are weak or reduced against the parent protein; the word gives no strength.

By UniProt entry, the sequences of proteins in these tests, tags left out. Where a name states a change or a piece, a line headed by the entry shows the natural chain unless it says otherwise. Chains listed by the source or under a name are the forms on record and can include a tag or linker.
flag-tagged MDM2 (Q00987, form named): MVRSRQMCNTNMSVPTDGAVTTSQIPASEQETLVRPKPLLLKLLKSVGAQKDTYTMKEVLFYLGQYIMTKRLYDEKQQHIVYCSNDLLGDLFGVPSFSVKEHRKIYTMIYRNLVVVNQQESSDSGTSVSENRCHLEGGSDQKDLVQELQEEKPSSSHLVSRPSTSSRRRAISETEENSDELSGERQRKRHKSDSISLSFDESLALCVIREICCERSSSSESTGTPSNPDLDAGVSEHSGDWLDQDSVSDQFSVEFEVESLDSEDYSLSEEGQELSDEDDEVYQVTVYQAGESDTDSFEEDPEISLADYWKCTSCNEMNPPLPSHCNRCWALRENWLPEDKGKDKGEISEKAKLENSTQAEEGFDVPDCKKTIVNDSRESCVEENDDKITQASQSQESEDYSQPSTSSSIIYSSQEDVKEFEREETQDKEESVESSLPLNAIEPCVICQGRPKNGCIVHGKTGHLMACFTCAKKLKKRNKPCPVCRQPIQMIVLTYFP
UniProt P23677: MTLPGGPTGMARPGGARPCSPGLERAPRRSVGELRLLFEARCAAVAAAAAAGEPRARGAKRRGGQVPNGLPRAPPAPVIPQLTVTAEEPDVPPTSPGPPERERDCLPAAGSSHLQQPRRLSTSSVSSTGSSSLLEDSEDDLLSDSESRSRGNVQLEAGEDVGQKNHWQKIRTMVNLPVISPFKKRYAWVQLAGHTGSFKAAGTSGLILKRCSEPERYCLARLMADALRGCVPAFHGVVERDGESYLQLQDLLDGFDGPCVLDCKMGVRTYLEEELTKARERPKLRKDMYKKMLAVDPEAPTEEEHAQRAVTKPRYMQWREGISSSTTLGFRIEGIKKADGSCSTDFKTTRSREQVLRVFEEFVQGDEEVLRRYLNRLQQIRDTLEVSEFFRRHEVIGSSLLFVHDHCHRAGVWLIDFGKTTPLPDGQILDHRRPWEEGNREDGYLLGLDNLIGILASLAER

Legend:
[1] = biological target: endogenous MDM2 of OVCAR3 cells (human (endogenous in OVCAR3)) (UniProt Q00987); assay: co-IP; endogenous proteins from OVCAR3 cells; immunoprecipitation with an anti-MDM2 antibody
flag-tagged MDM2 = flag-tagged MDM2 (UniProt Q00987); assay: co-IP; Flag-MDM2 and myc-ITPKA transfected into OVCAR3 cells, harvested after 48 hours in RIPA buffer; immunoprecipitation with an anti-Flag antibody, protein A beads, western blot

Row | Substance | binding [1] | binding (flag-tagged MDM2)
1 | Inositol-trisphosphate 3-kinase A (ITPKA), endogenous in OVCAR3 cells (from UniProt P23677 1-461) | binds | 
2 | myc-tagged ITPKA (from UniProt P23677 1-461) |  | binds
